Laboratory results from PMC6068138, “Identification of a 57S translation complex containing closed-loop factors and the 60S ribosome subunit” (Scientific Reports, 2018).
No constants are given. Whether binding was seen depends on the method and setting. Binding seen in cells or lysates may run through a third protein. Some results given as binding are weak or reduced against the parent protein; the word gives no strength. For some assays here: Sequences can lack the tags named with a protein.

By UniProt entry, the sequences of proteins in these tests, tags left out.
UniProt P06103: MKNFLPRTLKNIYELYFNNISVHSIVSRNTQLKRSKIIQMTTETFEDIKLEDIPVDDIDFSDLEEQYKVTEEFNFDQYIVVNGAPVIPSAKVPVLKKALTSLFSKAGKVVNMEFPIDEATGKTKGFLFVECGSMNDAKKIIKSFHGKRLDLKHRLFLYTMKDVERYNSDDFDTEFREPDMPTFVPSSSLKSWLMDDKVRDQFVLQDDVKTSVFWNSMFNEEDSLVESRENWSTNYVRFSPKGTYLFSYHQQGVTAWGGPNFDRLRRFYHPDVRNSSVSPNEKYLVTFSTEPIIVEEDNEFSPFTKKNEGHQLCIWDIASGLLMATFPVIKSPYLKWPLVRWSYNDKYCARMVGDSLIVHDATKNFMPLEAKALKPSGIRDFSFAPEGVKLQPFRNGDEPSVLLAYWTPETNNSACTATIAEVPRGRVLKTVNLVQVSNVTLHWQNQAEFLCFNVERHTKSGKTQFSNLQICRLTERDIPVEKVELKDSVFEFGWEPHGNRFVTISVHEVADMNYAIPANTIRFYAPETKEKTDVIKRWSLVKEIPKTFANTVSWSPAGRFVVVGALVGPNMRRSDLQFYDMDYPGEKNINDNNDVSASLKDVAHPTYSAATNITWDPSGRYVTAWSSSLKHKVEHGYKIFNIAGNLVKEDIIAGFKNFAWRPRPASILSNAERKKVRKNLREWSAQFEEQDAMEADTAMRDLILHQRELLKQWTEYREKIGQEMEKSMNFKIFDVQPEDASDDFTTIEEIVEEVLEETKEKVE
UniProt P0CX53: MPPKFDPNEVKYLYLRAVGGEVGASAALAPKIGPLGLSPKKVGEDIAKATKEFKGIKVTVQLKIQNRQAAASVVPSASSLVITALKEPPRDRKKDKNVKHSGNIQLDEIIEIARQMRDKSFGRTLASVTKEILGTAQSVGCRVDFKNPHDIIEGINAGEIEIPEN

T1: Flag-PAB1 (poly(A)-binding protein) (Saccharomyces cerevisiae, UniProt P04147 1-577)
T1 construct: bait of the one-step Flag pull down; also called PAB1-Flag; source: S. cerevisiae, expressed from plasmid YC776 (Flag-PAB1 URA3), in cell extract
T1 sequence (looked up): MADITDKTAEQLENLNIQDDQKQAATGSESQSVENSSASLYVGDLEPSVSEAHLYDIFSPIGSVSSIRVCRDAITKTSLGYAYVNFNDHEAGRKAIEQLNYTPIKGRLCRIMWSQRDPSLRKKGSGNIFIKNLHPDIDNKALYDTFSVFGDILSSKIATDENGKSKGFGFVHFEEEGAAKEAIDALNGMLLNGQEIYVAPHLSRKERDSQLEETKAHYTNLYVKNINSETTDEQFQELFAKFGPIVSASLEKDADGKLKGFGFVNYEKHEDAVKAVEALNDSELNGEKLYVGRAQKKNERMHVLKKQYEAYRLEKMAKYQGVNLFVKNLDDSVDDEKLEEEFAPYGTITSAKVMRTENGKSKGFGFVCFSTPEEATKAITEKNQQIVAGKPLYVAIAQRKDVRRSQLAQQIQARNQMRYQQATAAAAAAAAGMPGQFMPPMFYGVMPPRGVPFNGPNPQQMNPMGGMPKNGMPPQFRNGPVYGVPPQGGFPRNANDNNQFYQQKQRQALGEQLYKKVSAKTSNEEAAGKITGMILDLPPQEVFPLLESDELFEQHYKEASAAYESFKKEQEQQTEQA

T2: eIF4E-Flag (mRNA cap binding protein) (Saccharomyces cerevisiae, UniProt P07260 1-213)
T2 construct: bait of the one-step Flag pull down; also called eIF4-Flag; source: S. cerevisiae, expressed from plasmid YC801 (eIF4E-Flag URA3), in cell extract
T2 sequence (looked up): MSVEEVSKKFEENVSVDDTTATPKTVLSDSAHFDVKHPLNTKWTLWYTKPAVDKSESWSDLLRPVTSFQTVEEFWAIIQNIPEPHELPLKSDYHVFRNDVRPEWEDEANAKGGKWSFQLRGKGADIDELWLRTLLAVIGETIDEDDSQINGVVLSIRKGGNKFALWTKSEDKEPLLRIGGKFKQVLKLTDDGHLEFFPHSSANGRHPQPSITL


Columns and labels:
[1] = molecular target: T1, Flag-PAB1 (poly(A)-binding protein); assay: co-IP + AUC; Flag-PAB1 pull down in the presence of formaldehyde (cross-linking before cell lysis), then AU-FDS
[2] = molecular target: T1, Flag-PAB1 (poly(A)-binding protein); assay: co-IP + AUC; one-step Flag pull down of Flag-PAB1 from yeast cell extracts (cycloheximide added before lysis); Flag eluate analysed by AU-FDS for the GFP tagged protein, 20 °C, 15,000 rpm; cells on glucose, glucose depleted 10 min, glucose added back 1 min, or 30 °C to 46 °C 1 min
[3] = molecular target: T2, eIF4E-Flag (mRNA cap binding protein); assay: co-IP + AUC; one-step Flag pull down of eIF4E-Flag from yeast cell extracts (cycloheximide added before lysis); Flag eluate analysed by AU-FDS for the GFP tagged protein, 20 °C, 15,000 rpm; cells on glucose or glucose depleted 10 min

Row | Molecule | binding [1] | binding [2] | binding [3]
1 | eIF3b (from UniProt P06103 1-763) (other; other documents disagree on this pair) | binds |  | 
2 | eIF3b (from UniProt P06103 1-763) |  | no binding (condition: without formaldehyde cross-linking) | 
3 | RPL12A, GFP tagged (from UniProt P0CX53 1-165) |  | binds | 
4 | RPS4A, GFP tagged (protein, UniProt P0CX35 1-261) MARGPKKHLKRLAAPHHWLLDKLSGCYAPRPSAGPHKLRESLPLIVFLRNRLKYALNGREVKAILMQRHVKVDGKVRTDTTYPAGFMDVITLDATNENFRLVYDVKGRFAVHRITDEEASYKLGKVKKVQLGKKGVPYVVTHDGRTIRYPDPNIKVNDTVKIDLASGKITDFIKFDAGKLVYVTGGRNLGRIGTIVHKERHDGGFDLVHIKDSLDNTFVTRLNNVFVIGEQGKPYISLPKGKGIKLSIAEERDRRRAQQGL |  | binds | 
5 | RPL14B, GFP tagged (protein, UniProt P38754 1-138) MSTDSIVKASNWRLVEVGRVVLIKKGQSAGKLAAIVEIIDQKKVLIDGPKAGVPRQAINLGQVVLTPLTFALPRGARTATVSKKWAAAGVCEKWAASSWAKKIAQRERRAALTDFERFQVMVLRKQKRYTVKKALAKA |  | binds | 
6 | eIF4E, GFP tagged (natural protein, Saccharomyces cerevisiae, UniProt P07260 1-213, looked up, source: S. cerevisiae strain carrying the GFP fusion, in cell extract) MSVEEVSKKFEENVSVDDTTATPKTVLSDSAHFDVKHPLNTKWTLWYTKPAVDKSESWSDLLRPVTSFQTVEEFWAIIQNIPEPHELPLKSDYHVFRNDVRPEWEDEANAKGGKWSFQLRGKGADIDELWLRTLLAVIGETIDEDDSQINGVVLSIRKGGNKFALWTKSEDKEPLLRIGGKFKQVLKLTDDGHLEFFPHSSANGRHPQPSITL |  | binds | 

Other lines, results leading:

Row | binding [1] | binding [2] | binding [3] | Molecule
7 |  | binds | binds | eIF4G2-GFP (natural protein, Saccharomyces cerevisiae, UniProt P39936 1-914, looked up, eIF4G2, Saccharomyces cerevisiae; also called TIF4632-GFP; source: S. cerevisiae strain RP2384 (TIF4632-GFP::G418), in cell extract) MTDQRGPPPPHPQQANGYKKFPPHDNQYSGANNSQPNNHYNENLYSAREPHNNKQYQSKNGKYGTNKYNNRNNSQGNAQYYNNRFNNGYRLNNNDYNPAMLPGMQWPANYYAPQMYYIPQQMVPVASPPYTHQPLNTNPEPPSTPKTTKIEITTKTGERLNLKKFHEEKKASKGEEKNDGVEQKSKSGTPFEKEATPVLPANEAVKDTLTETSNEKSTSEAENTKRLFLEQVRLRKAAMERKKNGLISETEKKQETSNHDNTDTTKPNSVIESEPIKEAPKPTGEANEVVIDGKSGASVKTPQHVTGSVTKSVTFNEPENESSSQDVDELVKDDDTTEISDTTGGKTVNKSDDETINSVITTEENTVKETEPSTSDIEMPTVSQLLETLGKAQPISDIYEFAYPENVERPDIKYKKPSVKYTYGPTFLLQFKDKLKFRPDPAWVEAVSSKIVIPPHIARNKPKDSGRFGGDFRSPSMRGMDHTSSSRVSSKRRSKRMGDDRRSNRGYTSRKDREKAAEKAEEQAPKEEIAPLVPSANRWIPKSRVKKTEKKLAPDGKTELFDKEEVERKMKSLLNKLTLEMFDSISSEILDIANQSKWEDDGETLKIVIEQIFHKACDEPHWSSMYAQLCGKVVKDLDPNIKDKENEGKNGPKLVLHYLVARCHEEFEKGWADKLPAGEDGNPLEPEMMSDEYYIAAAAKRRGLGLVRFIGYLYCLNLLTGKMMFECFRRLMKDLNNDPSEETLESVIELLNTVGEQFEHDKFVTPQATLEGSVLLDNLFMLLQHIIDGGTISNRIKFKLIDVKELREIKHWNSAKKDAGPKTIQQIHQEEEQLRQKKNSQRSNSRFNNHNQSNSNRYSSNRRNMQNTQRDSFASTKTGSFRNNQRNARKVEEVSQAPRANMFDALMNNDGDSD
8 |  | binds |  | RPL7A, GFP tagged (protein, UniProt P05737 1-244) MAAEKILTPESQLKKSKAQQKTAEQVAAERAARKAANKEKRAIILERNAAYQKEYETAERNIIQAKRDAKAAGSYYVEAQHKLVFVVRIKGINKIPPKPRKVLQLLRLTRINSGTFVKVTKATLELLKLIEPYVAYGYPSYSTIRQLVYKRGFGKINKQRVPLSDNAIIEANLGKYGILSIDDLIHEIITVGPHFKQANNFLWPFKLSNPSGGWGVPRKFKHFIQGGSFGNREEFINKLVKSMN
9 |  | binds |  | RPL7B, GFP tagged (protein, UniProt Q12213 1-244) MSTEKILTPESQLKKTKAQQKTAEQIAAERAARKAANKEKRAIILERNAAYQKEYETAERNIIQAKRDAKAAGSYYVEAQHKLVFVVRIKGINKIPPKPRKVLQLLRLTRINSGTFVKVTKATLELLKLIEPYVAYGYPSYSTIRQLVYKRGFGKINKQRVPLSDNAIIEANLGKYGILSIDDLIHEIITVGPHFKQANNFLWPFKLSNPSGGWGVPRKFKHFIQGGSFGNREEFINKLVKAMN
10 |  | binds |  | RPS30B, GFP tagged (protein, UniProt P0CX34 1-63) MAKVHGSLARAGKVKSQTPKVEKTEKPKKPKGRAYKRLLYTRRFVNVTLVNGKRRMNPGPSVQ
11 |  |  | binds | PAB1, GFP tagged (natural protein, Saccharomyces cerevisiae, UniProt P04147 1-577, looked up, source: S. cerevisiae strain carrying the GFP fusion, in cell extract) MADITDKTAEQLENLNIQDDQKQAATGSESQSVENSSASLYVGDLEPSVSEAHLYDIFSPIGSVSSIRVCRDAITKTSLGYAYVNFNDHEAGRKAIEQLNYTPIKGRLCRIMWSQRDPSLRKKGSGNIFIKNLHPDIDNKALYDTFSVFGDILSSKIATDENGKSKGFGFVHFEEEGAAKEAIDALNGMLLNGQEIYVAPHLSRKERDSQLEETKAHYTNLYVKNINSETTDEQFQELFAKFGPIVSASLEKDADGKLKGFGFVNYEKHEDAVKAVEALNDSELNGEKLYVGRAQKKNERMHVLKKQYEAYRLEKMAKYQGVNLFVKNLDDSVDDEKLEEEFAPYGTITSAKVMRTENGKSKGFGFVCFSTPEEATKAITEKNQQIVAGKPLYVAIAQRKDVRRSQLAQQIQARNQMRYQQATAAAAAAAAGMPGQFMPPMFYGVMPPRGVPFNGPNPQQMNPMGGMPKNGMPPQFRNGPVYGVPPQGGFPRNANDNNQFYQQKQRQALGEQLYKKVSAKTSNEEAAGKITGMILDLPPQEVFPLLESDELFEQHYKEASAAYESFKKEQEQQTEQA
12 |  |  | binds | eIF4G1, GFP tagged (natural protein, Saccharomyces cerevisiae, UniProt P39935 1-952, looked up, eIF4G1, Saccharomyces cerevisiae; source: S. cerevisiae strain carrying the GFP fusion, in cell extract) MTDETAHPTQSASKQESAALKQTGDDQQESQQQRGYTNYNNGSNYTQKKPYNSNRPHQQRGGKFGPNRYNNRGNYNGGGSFRGGHMGANSSNVPWTGYYNNYPVYYQPQQMAAAGSAPANPIPVEEKSPVPTKIEITTKSGEHLDLKEQHKAKLQSQERSTVSPQPESKLKETSDSTSTSTPTPTPSTNDSKASSEENISEAEKTRRNFIEQVKLRKAALEKKRKEQLEGSSGNNNIPMKTTPENVEEKGSDKPEVTEKTKPAEEKSAEPEVKQETPAEEGEQGEKGQIKEESTPKVLTFAERLKLKKQQKEREEKTEGKENKEVPVQEETKSAIESAPVPPSEQVKEETEVAETEQSNIDESATTPAIPTKSDEAEAEVEAEAGDAGTKIGLEAEIETTTDETDDGTNTVSHILNVLKDATPIEDVFSFNYPEGIEGPDIKYKKEHVKYTYGPTFLLQFKDKLNVKADAEWVQSTASKIVIPPGMGRGNRSRDSGRFGNNSSRGHDFRNTSVRNMDDRANSRTSSKRRSKRMNDDRRSNRSYTSRRDRERGSYRNEEKREDDKPKEEVAPLVPSANRWVPKFKSKKTEKKLAPDGKTELLDKDEVERKMKSLLNKLTLEMFDAISSEILAIANISVWETNGETLKAVIEQIFLKACDEPHWSSMYAQLCGKVVKELNPDITDETNEGKTGPKLVLHYLVARCHAEFDKGWTDKLPTNEDGTPLEPEMMSEEYYAAASAKRRGLGLVRFIGFLYRLNLLTGKMMFECFRRLMKDLTDSPSEETLESVVELLNTVGEQFETDSFRTGQATLEGSQLLDSLFGILDNIIQTAKISSRIKFKLIDIKELRHDKNWNSDKKDNGPKTIQQIHEEEERQRQLKNNSRSNSRRTNNSSNRHSFRRDAPPASKDSFITTRTYSQRNSQRAPPPKEEPAAPTSTATNMFSALMGESDDEE
13 |  | binds | binds | RPS4B-GFP (protein, UniProt P0CX36 1-261) MARGPKKHLKRLAAPHHWLLDKLSGCYAPRPSAGPHKLRESLPLIVFLRNRLKYALNGREVKAILMQRHVKVDGKVRTDTTYPAGFMDVITLDATNENFRLVYDVKGRFAVHRITDEEASYKLGKVKKVQLGKKGVPYVVTHDGRTIRYPDPNIKVNDTVKIDLASGKITDFIKFDAGKLVYVTGGRNLGRIGTIVHKERHDGGFDLVHIKDSLDNTFVTRLNNVFVIGEQGKPYISLPKGKGIKLSIAEERDRRRAQQGL
14 |  | binds | binds | RPL6B-GFP (natural protein, Saccharomyces cerevisiae, UniProt P05739 1-176, looked up, large ribosomal subunit protein RPL6B, Saccharomyces cerevisiae; part of the 60S ribosomal subunit in the extract; source: S. cerevisiae strain carrying the GFP fusion, in cell extract) MTAQQAPKWYPSEDVAAPKKTRKAVRPQKLRASLVPGTVLILLAGRFRGKRVVYLKHLEDNTLLVTGPFKVNGVPLRRVNARYVIATSTKVSVEGVNVEKFNVEYFAKEKLTKKEKKEANLFPEQQTKEIKTERVEDQKVVDKALLAEIKKTPLLKQYLSASFSLKNGDKPHLLKF
